Source: the supplement of paper PMC10849652
This is one part of the list.

Chains of the proteins cited; added tags and fusions are not shown. Lines headed by an entry give the natural chain unless they say otherwise; changes in a name come on top.
UniProt P09543: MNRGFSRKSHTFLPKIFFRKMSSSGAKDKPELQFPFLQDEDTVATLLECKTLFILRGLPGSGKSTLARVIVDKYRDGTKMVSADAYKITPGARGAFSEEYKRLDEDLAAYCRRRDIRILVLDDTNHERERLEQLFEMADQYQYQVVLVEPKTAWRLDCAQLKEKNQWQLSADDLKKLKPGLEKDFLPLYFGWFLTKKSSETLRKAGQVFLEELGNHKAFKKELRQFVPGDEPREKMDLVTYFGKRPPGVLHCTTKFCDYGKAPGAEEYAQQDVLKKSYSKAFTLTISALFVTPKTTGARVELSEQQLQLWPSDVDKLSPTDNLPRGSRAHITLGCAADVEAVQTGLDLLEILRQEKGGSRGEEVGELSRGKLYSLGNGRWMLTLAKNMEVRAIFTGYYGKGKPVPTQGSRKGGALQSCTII
UniProt P09497: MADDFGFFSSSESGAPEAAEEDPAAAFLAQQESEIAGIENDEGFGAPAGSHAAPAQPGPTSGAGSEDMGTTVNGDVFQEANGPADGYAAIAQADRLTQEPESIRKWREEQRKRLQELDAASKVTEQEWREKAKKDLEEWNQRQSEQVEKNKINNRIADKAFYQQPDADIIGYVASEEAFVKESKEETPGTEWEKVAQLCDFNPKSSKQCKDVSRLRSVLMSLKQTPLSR
UniProt Q7Z460: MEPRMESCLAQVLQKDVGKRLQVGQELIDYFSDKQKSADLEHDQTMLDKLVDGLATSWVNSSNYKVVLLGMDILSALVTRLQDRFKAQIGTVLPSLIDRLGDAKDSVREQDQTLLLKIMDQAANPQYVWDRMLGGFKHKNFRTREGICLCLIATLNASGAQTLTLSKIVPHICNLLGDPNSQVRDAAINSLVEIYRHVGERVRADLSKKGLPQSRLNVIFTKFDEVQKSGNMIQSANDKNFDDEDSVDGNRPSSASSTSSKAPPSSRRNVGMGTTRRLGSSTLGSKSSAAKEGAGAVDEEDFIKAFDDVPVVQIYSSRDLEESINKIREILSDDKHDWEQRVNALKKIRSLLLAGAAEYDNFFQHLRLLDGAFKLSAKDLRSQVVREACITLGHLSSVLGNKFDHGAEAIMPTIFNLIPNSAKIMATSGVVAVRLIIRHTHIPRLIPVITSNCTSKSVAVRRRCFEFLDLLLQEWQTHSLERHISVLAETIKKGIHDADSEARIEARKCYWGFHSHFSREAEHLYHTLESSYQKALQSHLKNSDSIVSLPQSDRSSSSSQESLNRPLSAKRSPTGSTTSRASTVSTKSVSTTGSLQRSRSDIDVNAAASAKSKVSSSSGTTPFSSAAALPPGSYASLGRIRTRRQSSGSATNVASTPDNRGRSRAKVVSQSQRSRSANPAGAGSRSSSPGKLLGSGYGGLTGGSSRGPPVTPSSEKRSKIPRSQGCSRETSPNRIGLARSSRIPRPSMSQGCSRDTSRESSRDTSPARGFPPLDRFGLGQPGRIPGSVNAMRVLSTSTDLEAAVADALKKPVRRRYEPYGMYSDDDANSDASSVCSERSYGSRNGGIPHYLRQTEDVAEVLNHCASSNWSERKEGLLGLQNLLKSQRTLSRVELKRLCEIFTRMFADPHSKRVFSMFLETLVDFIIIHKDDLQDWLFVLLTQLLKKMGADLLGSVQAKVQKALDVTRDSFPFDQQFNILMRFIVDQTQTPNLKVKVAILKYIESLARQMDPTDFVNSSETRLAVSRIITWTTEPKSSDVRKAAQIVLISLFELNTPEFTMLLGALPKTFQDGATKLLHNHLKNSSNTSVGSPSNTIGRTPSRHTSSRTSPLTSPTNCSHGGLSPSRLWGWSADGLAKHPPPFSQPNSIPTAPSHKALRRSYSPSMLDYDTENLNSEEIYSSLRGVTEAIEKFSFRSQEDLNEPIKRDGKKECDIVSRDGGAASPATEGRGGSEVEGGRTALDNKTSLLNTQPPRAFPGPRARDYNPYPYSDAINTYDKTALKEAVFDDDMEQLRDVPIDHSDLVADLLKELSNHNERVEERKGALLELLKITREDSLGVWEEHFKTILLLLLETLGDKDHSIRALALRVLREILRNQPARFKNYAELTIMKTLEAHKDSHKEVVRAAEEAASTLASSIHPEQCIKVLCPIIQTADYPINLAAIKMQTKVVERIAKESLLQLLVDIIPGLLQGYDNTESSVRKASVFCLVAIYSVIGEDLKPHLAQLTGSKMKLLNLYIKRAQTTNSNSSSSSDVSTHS
UniProt Q14008: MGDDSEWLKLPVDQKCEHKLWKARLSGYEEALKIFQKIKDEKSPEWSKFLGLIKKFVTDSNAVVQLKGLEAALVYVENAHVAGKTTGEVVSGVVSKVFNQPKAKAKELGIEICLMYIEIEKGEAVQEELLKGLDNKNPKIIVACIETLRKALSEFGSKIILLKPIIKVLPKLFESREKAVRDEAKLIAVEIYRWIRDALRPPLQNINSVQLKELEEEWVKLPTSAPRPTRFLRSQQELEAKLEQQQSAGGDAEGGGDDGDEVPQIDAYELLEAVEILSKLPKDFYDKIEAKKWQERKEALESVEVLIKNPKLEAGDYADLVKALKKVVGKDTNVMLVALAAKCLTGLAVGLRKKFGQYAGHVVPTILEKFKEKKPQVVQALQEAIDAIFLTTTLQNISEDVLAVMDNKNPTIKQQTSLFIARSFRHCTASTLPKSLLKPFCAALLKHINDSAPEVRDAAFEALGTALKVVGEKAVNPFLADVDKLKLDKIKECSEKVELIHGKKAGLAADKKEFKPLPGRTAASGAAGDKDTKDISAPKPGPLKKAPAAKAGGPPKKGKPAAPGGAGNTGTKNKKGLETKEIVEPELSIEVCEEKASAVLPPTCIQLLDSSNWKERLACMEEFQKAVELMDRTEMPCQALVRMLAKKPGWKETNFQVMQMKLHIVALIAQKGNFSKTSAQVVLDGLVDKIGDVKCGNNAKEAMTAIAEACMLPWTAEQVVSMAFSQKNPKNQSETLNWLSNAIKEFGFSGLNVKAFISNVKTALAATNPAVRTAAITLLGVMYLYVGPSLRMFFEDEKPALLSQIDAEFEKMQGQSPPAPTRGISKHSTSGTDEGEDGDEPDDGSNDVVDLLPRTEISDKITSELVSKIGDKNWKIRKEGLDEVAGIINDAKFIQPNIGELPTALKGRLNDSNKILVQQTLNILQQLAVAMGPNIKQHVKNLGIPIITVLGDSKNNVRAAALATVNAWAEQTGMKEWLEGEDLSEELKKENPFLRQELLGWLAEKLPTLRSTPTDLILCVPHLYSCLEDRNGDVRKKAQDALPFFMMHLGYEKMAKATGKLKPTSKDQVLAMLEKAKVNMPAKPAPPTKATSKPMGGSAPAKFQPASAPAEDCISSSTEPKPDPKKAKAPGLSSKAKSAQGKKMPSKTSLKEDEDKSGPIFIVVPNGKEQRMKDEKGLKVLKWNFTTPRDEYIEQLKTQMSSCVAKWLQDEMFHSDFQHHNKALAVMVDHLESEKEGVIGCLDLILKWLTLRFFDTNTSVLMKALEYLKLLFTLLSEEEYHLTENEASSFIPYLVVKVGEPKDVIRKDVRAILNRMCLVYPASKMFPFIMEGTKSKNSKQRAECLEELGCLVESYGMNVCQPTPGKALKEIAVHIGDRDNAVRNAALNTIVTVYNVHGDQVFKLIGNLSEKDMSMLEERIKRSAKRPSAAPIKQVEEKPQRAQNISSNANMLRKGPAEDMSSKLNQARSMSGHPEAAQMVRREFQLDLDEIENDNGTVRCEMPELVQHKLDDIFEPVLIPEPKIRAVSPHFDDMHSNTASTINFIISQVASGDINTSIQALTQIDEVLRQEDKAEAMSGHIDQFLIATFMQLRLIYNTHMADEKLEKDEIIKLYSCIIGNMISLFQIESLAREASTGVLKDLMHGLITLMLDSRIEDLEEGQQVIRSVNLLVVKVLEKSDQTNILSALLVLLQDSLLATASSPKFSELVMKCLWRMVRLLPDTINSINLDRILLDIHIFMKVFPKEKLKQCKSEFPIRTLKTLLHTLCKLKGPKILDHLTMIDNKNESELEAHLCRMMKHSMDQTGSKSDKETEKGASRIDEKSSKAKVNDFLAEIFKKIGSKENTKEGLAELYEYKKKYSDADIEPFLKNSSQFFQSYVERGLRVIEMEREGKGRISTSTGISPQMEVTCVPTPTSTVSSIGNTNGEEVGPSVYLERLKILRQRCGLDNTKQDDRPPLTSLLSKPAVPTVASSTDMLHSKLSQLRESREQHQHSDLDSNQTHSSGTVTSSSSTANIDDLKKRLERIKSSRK
UniProt Q9H9A5, whole entry, looked up: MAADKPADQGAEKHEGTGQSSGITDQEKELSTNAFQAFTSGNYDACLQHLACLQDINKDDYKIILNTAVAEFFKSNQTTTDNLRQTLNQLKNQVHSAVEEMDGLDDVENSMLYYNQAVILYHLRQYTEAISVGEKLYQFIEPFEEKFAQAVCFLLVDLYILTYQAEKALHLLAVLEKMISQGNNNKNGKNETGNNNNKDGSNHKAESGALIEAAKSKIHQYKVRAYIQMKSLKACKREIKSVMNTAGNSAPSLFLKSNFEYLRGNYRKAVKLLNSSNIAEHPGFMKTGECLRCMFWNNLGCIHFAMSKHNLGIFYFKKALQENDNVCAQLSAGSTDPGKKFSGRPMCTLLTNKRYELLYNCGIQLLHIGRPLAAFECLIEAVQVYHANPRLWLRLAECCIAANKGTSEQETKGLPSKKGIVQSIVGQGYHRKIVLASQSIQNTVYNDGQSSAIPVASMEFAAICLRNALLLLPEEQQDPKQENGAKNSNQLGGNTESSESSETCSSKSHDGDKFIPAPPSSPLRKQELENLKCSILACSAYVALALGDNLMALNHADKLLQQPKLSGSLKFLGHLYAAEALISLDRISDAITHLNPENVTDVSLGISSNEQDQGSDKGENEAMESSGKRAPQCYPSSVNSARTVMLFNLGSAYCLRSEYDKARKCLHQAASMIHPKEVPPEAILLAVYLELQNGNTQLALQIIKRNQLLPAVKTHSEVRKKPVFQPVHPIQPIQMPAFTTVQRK
UniProt P30622: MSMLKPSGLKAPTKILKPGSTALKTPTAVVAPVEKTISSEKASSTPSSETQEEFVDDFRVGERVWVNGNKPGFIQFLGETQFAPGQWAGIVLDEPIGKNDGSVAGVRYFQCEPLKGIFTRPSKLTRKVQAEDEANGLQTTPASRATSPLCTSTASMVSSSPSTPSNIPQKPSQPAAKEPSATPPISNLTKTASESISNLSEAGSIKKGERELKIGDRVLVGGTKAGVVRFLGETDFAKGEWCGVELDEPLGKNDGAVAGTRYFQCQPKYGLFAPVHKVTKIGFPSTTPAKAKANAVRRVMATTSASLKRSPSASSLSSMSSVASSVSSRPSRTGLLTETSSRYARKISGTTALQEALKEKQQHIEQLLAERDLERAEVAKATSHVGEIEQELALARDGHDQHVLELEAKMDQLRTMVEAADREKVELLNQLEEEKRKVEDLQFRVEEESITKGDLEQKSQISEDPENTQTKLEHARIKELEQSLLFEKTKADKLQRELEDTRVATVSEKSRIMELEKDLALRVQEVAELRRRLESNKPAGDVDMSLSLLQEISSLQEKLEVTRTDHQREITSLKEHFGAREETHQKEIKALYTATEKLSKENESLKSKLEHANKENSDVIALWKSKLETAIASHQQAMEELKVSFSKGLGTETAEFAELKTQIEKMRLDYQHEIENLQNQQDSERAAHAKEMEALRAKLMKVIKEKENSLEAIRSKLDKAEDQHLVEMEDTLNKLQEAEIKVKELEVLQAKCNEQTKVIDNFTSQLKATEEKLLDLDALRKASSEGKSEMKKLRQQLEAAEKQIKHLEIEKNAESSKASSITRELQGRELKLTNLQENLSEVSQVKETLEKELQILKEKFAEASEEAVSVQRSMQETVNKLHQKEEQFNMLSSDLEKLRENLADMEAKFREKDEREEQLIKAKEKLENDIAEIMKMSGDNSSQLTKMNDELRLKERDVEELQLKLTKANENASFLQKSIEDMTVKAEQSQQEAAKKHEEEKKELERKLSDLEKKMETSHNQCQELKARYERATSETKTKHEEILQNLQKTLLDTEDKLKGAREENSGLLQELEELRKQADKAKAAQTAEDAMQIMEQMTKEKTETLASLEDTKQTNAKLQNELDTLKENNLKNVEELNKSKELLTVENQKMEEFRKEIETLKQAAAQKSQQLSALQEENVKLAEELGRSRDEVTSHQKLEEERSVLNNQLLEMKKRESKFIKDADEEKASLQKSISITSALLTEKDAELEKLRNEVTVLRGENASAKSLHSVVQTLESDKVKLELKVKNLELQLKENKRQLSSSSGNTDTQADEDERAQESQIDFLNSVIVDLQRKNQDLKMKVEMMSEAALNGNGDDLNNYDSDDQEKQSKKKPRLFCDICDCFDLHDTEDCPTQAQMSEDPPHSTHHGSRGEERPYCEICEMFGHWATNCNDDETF
UniProt Q9NX76: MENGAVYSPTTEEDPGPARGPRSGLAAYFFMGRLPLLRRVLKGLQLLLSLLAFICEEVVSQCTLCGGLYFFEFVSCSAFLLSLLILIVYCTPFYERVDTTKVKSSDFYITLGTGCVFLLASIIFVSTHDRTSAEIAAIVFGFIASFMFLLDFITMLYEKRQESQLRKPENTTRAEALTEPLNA

compound: CC1=C(C=C(C=C1)NC(=O)C2=CC(=CC=C2)C(C)(C)C#N)NC3=CC4=C(C=C3)N=CN(C4=O)C; assay: log2 fold change, soluble protein after heating vs DMSO (PISA); higher = thermal stabilisation; K562 cells, 10 uM, 30 min; active = over 0.2 and 3.5 SD of the protein, either way, in both replicates (recomputed)
How it was run: (§1)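 Soluble protein was quantified by TMTpro 16plex LC-MS/MS after channel sums were equalised. It was obtained as the supernatant after 21,000xg for 90 min from pooled aliquots of K562 cells (2×10^6 cells/mL, 10 μM compound, 30 min) heated for 3 min across 48°C-58°C and extracted in PBS with 0.5% NP-40 at 4°C. Thermal stability values are relative to control samples and come from duplicates. They are given as log2 fold changes.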

| Target | log2 fold change |
| --- | --- |
| CISD3 (UniProt P0C7P0) | inactive: 0.023 |
| CLTA isoform 2 (UniProt P09496) | inactive: 0.001 |
| CMSS1 (UniProt Q9BQ75) | inactive: -0.027 |
| CNOT8 (UniProt Q9UFF9) | inactive: 0.022 |
| COA3 (UniProt Q9Y2R0) | inactive: -0.023 |
| CKB (UniProt P12277) | inactive: 0.016 |
| CNP (UniProt P09543) | inactive: -0.05 |
| CNOT6L (UniProt Q96LI5) | inactive: -0.047 |
| COL15A1 (UniProt P39059) | inactive: -0.045 |
| CLCN7 (UniProt P51798) | inactive: 0.027 |
| CLEC16A (UniProt Q2KHT3) | inactive: -0.035 |
| CLTB (UniProt P09497) | inactive: -0.003 |
| COA7 (UniProt Q96BR5) | inactive: -0.003 |
| CLASP1 (UniProt Q7Z460) | inactive: 0.003 |
| CNTN4 (UniProt Q8IWV2) | inactive: -0.053 |
| CKAP5 (UniProt Q14008) | inactive: 0.005 |
| CNOT10 isoform 6 (UniProt Q9H9A5) | inactive: -0.027 |

| Target | log2 fold change |
| --- | --- |
| CLIC1 (UniProt O00299) | inactive: -0.003 |
| CLNS1A (UniProt P54105) | inactive: -0.047 |
| CMAS (UniProt Q8NFW8) | inactive: -0.004 |
| CKMT1A (UniProt P12532) | inactive: -0.068 |
| CLIP1 isoform 1 (UniProt P30622) | inactive: -0.004 |
| CIAO2A (UniProt Q9H5X1) | inactive: -0.048 |
| CNBP isoform 6 (UniProt P62633) | inactive: -0.022 |
| CMPK1 (UniProt P30085) | inactive: 0.011 |
| CLPP (UniProt Q16740) | inactive: -0.002 |
| CLPTM1L (UniProt Q96KA5) | inactive: -0.014 |
| CMC2 (UniProt Q9NRP2) | inactive: -0.029 |
| CISD2 (UniProt Q8N5K1) | inactive: 0.025 |
| CMTM6 (UniProt Q9NX76) | inactive: -0.039 |
| CISD1 (UniProt Q9NZ45) | inactive: 0.006 |
| CLPB isoform 2 (UniProt Q9H078) | inactive: -0.009 |
| CNOT9 isoform 2 (UniProt Q92600) | inactive: -0.099 |

compound: CC1=C(C=C(C=C1)NC(=O)C2=CC(=CC=C2)N(C)C)NC(=O)C3=CC=C(C=C3)O; assay: as above
How it was run: as §1

| Target | log2 fold change |
| --- | --- |
| CISD3 (UniProt P0C7P0) | inactive: -0.1 |
| CLTA isoform 2 (UniProt P09496) | inactive: 0.005 |
| CMSS1 (UniProt Q9BQ75) | inactive: -0.069 |
| CNOT8 (UniProt Q9UFF9) | inactive: 0 |
| COA3 (UniProt Q9Y2R0) | inactive: -0.041 |
| CKB (UniProt P12277) | inactive: -0.006 |
| CNP (UniProt P09543) | inactive: -0.029 |
| CNOT6L (UniProt Q96LI5) | inactive: 0.028 |
| COL15A1 (UniProt P39059) | inactive: -0.106 |
| CLCN7 (UniProt P51798) | inactive: -0.026 |
| CLEC16A (UniProt Q2KHT3) | inactive: -0.018 |
| CLTB (UniProt P09497) | inactive: -0.025 |
| COA7 (UniProt Q96BR5) | inactive: -0.005 |
| CLASP1 (UniProt Q7Z460) | inactive: -0.01 |
| CNTN4 (UniProt Q8IWV2) | inactive: 0 |
| CKAP5 (UniProt Q14008) | inactive: -0.028 |
| CNOT10 isoform 6 (UniProt Q9H9A5) | inactive: -0.017 |

| Target | log2 fold change |
| --- | --- |
| CLIC1 (UniProt O00299) | inactive: 0.015 |
| CLNS1A (UniProt P54105) | inactive: 0.014 |
| CMAS (UniProt Q8NFW8) | inactive: -0.04 |
| CKMT1A (UniProt P12532) | inactive: 0.02 |
| CLIP1 isoform 1 (UniProt P30622) | inactive: -0.01 |
| CIAO2A (UniProt Q9H5X1) | inactive: -0.025 |
| CNBP isoform 6 (UniProt P62633) | inactive: -0.004 |
| CMPK1 (UniProt P30085) | inactive: 0.004 |
| CLPP (UniProt Q16740) | inactive: -0.004 |
| CLPTM1L (UniProt Q96KA5) | inactive: 0.01 |
| CMC2 (UniProt Q9NRP2) | inactive: -0.019 |
| CISD2 (UniProt Q8N5K1) | inactive: -0.013 |
| CMTM6 (UniProt Q9NX76) | inactive: -0.067 |
| CISD1 (UniProt Q9NZ45) | inactive: -0.006 |
| CLPB isoform 2 (UniProt Q9H078) | inactive: -0.015 |
| CNOT9 isoform 2 (UniProt Q92600) | inactive: -0.014 |

compound: CC1=CC=C(C=C1)SC2=C3C=C(SC3=CN=C2)C(=O)N; assay: as above
How it was run: as §1

| Target | log2 fold change |
| --- | --- |
| CISD3 (UniProt P0C7P0) | inactive: -0.007 |
| CLTA isoform 2 (UniProt P09496) | inactive: -0.02 |
| CMSS1 (UniProt Q9BQ75) | inactive: -0.011 |
| CNOT8 (UniProt Q9UFF9) | inactive: -0.013 |
| COA3 (UniProt Q9Y2R0) | inactive: 0.008 |
| CKB (UniProt P12277) | inactive: -0.008 |
| CNP (UniProt P09543) | inactive: -0.01 |
| CNOT6L (UniProt Q96LI5) | inactive: -0.02 |
| COL15A1 (UniProt P39059) | inactive: 0.22 |
| CLCN7 (UniProt P51798) | inactive: 0.029 |
| CLEC16A (UniProt Q2KHT3) | inactive: -0.037 |
| CLTB (UniProt P09497) | inactive: -0.007 |
| COA7 (UniProt Q96BR5) | inactive: 0.081 |
| CLASP1 (UniProt Q7Z460) | inactive: 0.01 |
| CNTN4 (UniProt Q8IWV2) | inactive: 0.035 |
| CKAP5 (UniProt Q14008) | inactive: 0.02 |
| CNOT10 isoform 6 (UniProt Q9H9A5) | inactive: -0.015 |

| Target | log2 fold change |
| --- | --- |
| CLIC1 (UniProt O00299) | inactive: 0.053 |
| CLNS1A (UniProt P54105) | inactive: -0.009 |
| CMAS (UniProt Q8NFW8) | inactive: -0.056 |
| CKMT1A (UniProt P12532) | inactive: -0.042 |
| CLIP1 isoform 1 (UniProt P30622) | inactive: -0.015 |
| CIAO2A (UniProt Q9H5X1) | inactive: 0.004 |
| CNBP isoform 6 (UniProt P62633) | inactive: -0.075 |
| CMPK1 (UniProt P30085) | inactive: -0.004 |
| CLPP (UniProt Q16740) | inactive: -0.003 |
| CLPTM1L (UniProt Q96KA5) | inactive: 0.03 |
| CMC2 (UniProt Q9NRP2) | inactive: -0.058 |
| CISD2 (UniProt Q8N5K1) | inactive: -0.022 |
| CMTM6 (UniProt Q9NX76) | inactive: -0.19 |
| CISD1 (UniProt Q9NZ45) | inactive: -0.009 |
| CLPB isoform 2 (UniProt Q9H078) | inactive: 0.019 |
| CNOT9 isoform 2 (UniProt Q92600) | inactive: 0.065 |
